PMC4456726
Results are given in words; binding and its absence hold for the method and conditions named. In cells and extracts the contact can be indirect. Some results given as binding are weak or reduced against the parent protein; the word gives no strength.

By UniProt entry, the sequences of proteins in these tests, tags left out. Residues count along the entry.
UniProt P45481, residues 586-665: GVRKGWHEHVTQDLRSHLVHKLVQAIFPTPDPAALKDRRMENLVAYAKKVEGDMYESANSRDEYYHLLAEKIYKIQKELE
UniProt Q01147, residues 87-146: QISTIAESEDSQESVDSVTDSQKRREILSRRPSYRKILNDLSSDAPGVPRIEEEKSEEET

Legend:
[1] = molecular target: nuclear localization signal attached N-terminal luciferase-KIX (NLS-lucN-KIX) (UniProt P45481); assay: split reporter; split luciferase complementation in the cerebral cortex of awake transgenic mice; luciferin (0.25 M, 300 μl) i.p. 5 min before imaging, 5-min exposure, CCD camera; before and 1 h after imipramine (64 mg/kg), or before and after reserpine (0, 0.5, 1 mg/kg/day, 3 days)
[2] = molecular target: nuclear localization signal attached N-terminal luciferase-KIX (NLS-lucN-KIX) (UniProt P45481); assay: split reporter; split luciferase complementation in primary cortical culture (E17, DIV 3) of the transgenic mouse; L15 with 5 mM luciferin; before and 1 h after forskolin (10 μM)

nuclear localization signal attached KID-C-terminal luciferase (NLS-KID-lucC) (from UniProt Q01147 87-146) (domain or fragment)
binding [1]: binds
binding [2]: binds
